Experimental data reported in PMC10670193.

B1: Flag-tagged MOF (protein, UniProt O02193 1-827)
chain: MSEAELEQTPSAGHVQEQPIEEEHEPEQEPTDAYTIGGPPRTPVEDAAAELSASLDVSGSDQSAEQSLDLSGVQAEAAAESEPPAKRQHRDISPISEDSTPASSTSTSSTRSSSSSRYDDVSEAEEAPPEPEPEQPQQQQQEEKKEDGQDQVKSPGPVELEAQEPAQPQKQKEVVDQEIETEDEPSSDTVICVADINPYGSGSNIDDFVMDPDAPPNAIITEVVTIPAPLHLKGTQQLGLPLAAPPPPPPPPAAEQVPETPASPTDDGEEPPAVYLSPYIRSRYMQESTPGLPTRLAPRDPRQRNMPPPAVVLPIQTVLSANVEAISDDSSETSSSDDDEEEEEDEDDALTMEHDNTSRETVITTGDPLMQKIDISENPDKIYFIRREDGTVHRGQVLQSRTTENAAAPDEYYVHYVGLNRRLDGWVGRHRISDNADDLGGITVLPAPPLAPDQPSTSREMLAQQAAAAAAASSERQKRAANKDYYLSYCENSRYDYSDRKMTRYQKRRYDEINHVQKSHAELTATQAALEKEHESITKIKYIDKLQFGNYEIDTWYFSPFPEEYGKARTLYVCEYCLKYMRFRSSYAYHLHECDRRRPPGREIYRKGNISIYEVNGKEESLYCQLLCLMAKLFLDHKVLYFDMDPFLFYILCETDKEGSHIVGYFSKEKKSLENYNVACILVLPPHQRKGFGKLLIAFSYELSRKEGVIGSPEKPLSDLGRLSYRSYWAYTLLELMKTRCAPEQITIKELSEMSGITHDDIIYTLQSMKMIKYWKGQNVICVTSKTIQDHLQLPQFKQPKLTIDTDYLVWSPQTAAAVVRAPGNSG
B2: Flag-tagged E(z) (protein, UniProt Q9VDC6 1-879)
chain: MGSLPQLSIVKGLQQDFVPRALHRIFEEQQLRHADKVALIYQPSTTGQGMAPSQSSYRQMNERANRAARLLVAETHGRFLQPNSDGDFIVAVCMQPSEGLVTTLLAIWKAGGAYLPIDPSFPANRIHHILLEAKPTLVIRDDDIDAGRFQGTPTLSTTELYAKSLQLAGSNLLSEEMLRGGNDHIAIVLYTSGSTGVPKGVRLPHESILNRLQWQWATFPYTANEAVSVFKTALTFVDSIAELWGPLMCGLAILVVPKAVTKDPQRLVALLERYKIRRLVLVPTLLRSLLMYLKMEGGGAAQKLLYNLQIWVCSGEPLSVSLASSFFDYFDEGVHRLYNFYGSTEVLGDVTYFACESKKQLSLYDNVPIGIPLSNTVVYLLDADYRPVKNGEIGEIFASGLNLAAGYVNGRDPERFLENPLAVEKKYARLYRTGDYGSLKNGSIMYEGRTDSQVKIRGHRVDLSEVEKNVAELPLVDKAIVLCYHAGQVDQAILAFVKLRDDAPMVTEMQMEARLKDKLADYMTPQVVILEHVPLLVNGKVDRQALLKTYETANNNEGDSSIVLDFDYSQVPEDLKLTARDLFETVGGVIGRSTRATLAPHSNFYELGGNSLNSIFTVTLLREKGYNIGISEFIAAKNLGEIIEKMAANHDAVQLEEESLNACPHLKMEAVPLRLEHRQEVIDIIVASFYNKADLEQWLKPGVLRTDYSDILNDIWNVLVERDLSFVVYDTNTDRIIGTALNFDARNEPEVDIKSKLLIVFEFLEFCEGPIRDNYLPKGLNQILHSFMMGTAEKLNPRENIACMHFMEHEVLRVAREKQFAGIFTTNTSPLTQQLADVYHYKTLLNFQVNEYVHSDGSRPFGDAPDEQRAIVHWKEVGK
B3: Flag-tagged Su(z)12 (protein, UniProt Q9NJG9 1-900)
chain: MAPAKKREKDSNPDGSAANGIIGLTHGAPDASNAGSTVPPTAEGQVKLNGHQQEQELFLQAFEKPTQIYRYLRNRHETNPIFLNRTLSYMKERMSRNNKKRISFQVNSMLESITQKSEAVSQNYLHVIYDSLHEKLPARLDNESGEDLLQEQLLCEAGESVSVETTLYKITRSKRKDSTLDFQELLSKCSQIVYNPKDRVGEHATISIPLQTMRPMGEQHTLYKLLFRIKVLSPSTCNDENAETPPNKRSRPNEKMFGSELILYEKSSGFITEGEYEAMLQPLNSTSIKSFSPKKCTWETMPDSYIPLSLTYDVYQQSPMLKFHLTLSNEQLPEMISAPELQRYVQHLDAVAEMNYNNNNYNNNNNCSGLKNGSGGGNSTVCKTTPEHIQIVYNFMYSNNTRQQTEYTQELNCPWCGLDCLRLYALLKHLKLCHARFNFTYQPAGSGARIDVTINDAYDGSYAGSPYDLAGPSGSSFARTCGPVRRTSVTSLMVCRPRRQKTCLDEFLELDEDEISNQRSYITGHNRLYHHTETCLPVHPKELDIDSEGESDPLWLRQKTIQMIDEFSDVNEGEKELMKLWNLHVMRHGFVGDCQLPIACEMFLDAKGTEIVRKNLYRNFILHMCSLFDYGLIAAETVYKTVQKLQGLLSKYAAGQELMQRQREEQLKYWLDVGMHKKQEDPKTLKSPQKPAPPADQASTSSASTSGSGSGSSSMQPPKRMPAHLKRGSAASSPGVQSKGTENGTNGSNSSSSNSKNVAKKSADQPLSTLANTRERRSEYGQKRNVSGSRLAATPASKRKLSSKDNTVLNKRQRYSDGSPGTGIGNGHGGGSGSGANRNKSNNHSLPATSNNASSSSSNSKRAIARRRSTSERTKASGSTGGGAGGVRTRLSVPAKYERR

biological target: GFP-Bonus (Drosophila); experiment: co-IP; GFP-Trap beads from lysate of S2 cells co-expressing GFP-Bonus and a Flag-tagged protein; 20 mM Tris-HCl pH 7.4, 150 mM NaCl, 0.2% NP-40, 0.2% Triton-X100, 5% glycerol, 20 mM NEM; 4 °C; Western blot; lysate without GFP-Bonus as negative control

| Binder | binding |
| --- | --- |
| B1 | binds |
| B2 | binds |
| B3 | binds |

No constants are given. Whether binding was seen depends on the method and setting. Binding seen in cells or lysates may run through a third protein. Binding calls can cover weak binding; strength is not graded here. Sequences can lack the tags named with a protein.
